Results are given in words; binding and its absence hold for the method and conditions named. Binding seen in cells or lysates may run through a third protein. Some results given as binding are weak or reduced against the parent protein; the word gives no strength. For some of these results: Where a sequence is shown, tags or fusion partners need not be part of it.
How the values were obtained:
[1] = biological target: Tripartite motif 25 (TRIM25) (human (endogenous in gastric cancer cells)) (UniProt Q14258); test: co-IP; cells lysed in NP-40 lysis buffer with protease inhibitors; lysate with anti-NLRP12 or anti-TRIM25 antibody (4 μg/mL) or control IgG, protein A/G beads, 4 °C for 3 h; Western blot; with and without overexpression of NLRP12 or TRIM25
[2] = biological target: myc-TRIM25^WT (human) (UniProt Q14258); test: co-IP; 293T cells cotransfected with TRIM25 or its truncations and flag-NLRP12 or His-HK2; IP and Western blot

By UniProt entry, the sequences of proteins in these tests, tags left out.
UniProt Q14258: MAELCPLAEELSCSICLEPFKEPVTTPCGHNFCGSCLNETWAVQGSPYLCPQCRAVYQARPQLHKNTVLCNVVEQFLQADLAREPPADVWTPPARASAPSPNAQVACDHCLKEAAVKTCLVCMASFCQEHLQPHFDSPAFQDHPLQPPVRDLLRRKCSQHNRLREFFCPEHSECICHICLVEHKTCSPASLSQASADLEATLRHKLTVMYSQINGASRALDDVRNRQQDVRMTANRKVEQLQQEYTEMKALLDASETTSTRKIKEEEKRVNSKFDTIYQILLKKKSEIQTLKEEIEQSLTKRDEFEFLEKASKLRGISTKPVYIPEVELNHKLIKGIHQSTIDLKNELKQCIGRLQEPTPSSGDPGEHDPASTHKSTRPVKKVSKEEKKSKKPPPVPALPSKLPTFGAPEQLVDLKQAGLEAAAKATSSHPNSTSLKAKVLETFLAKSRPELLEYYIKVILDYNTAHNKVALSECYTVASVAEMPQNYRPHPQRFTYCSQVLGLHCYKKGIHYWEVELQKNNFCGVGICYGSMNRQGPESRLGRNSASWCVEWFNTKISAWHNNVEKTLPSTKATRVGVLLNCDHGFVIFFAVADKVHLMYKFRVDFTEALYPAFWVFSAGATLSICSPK

| Binder | binding [1] | binding [2] |
| --- | --- | --- |
| NLR family pyrin domain containing 12 (NLRP12) (protein, UniProt P59046 1-1061) MLRTAGRDGLCRLSTYLEELEAVELKKFKLYLGTATELGEGKIPWGSMEKAGPLEMAQLLITHFGPEEAWRLALSTFERINRKDLWERGQREDLVRDTPPGGPSSLGNQSTCLLEVSLVTPRKDPQETYRDYVRRKFRLMEDRNARLGECVNLSHRYTRLLLVKEHSNPMQVQQQLLDTGRGHARTVGHQASPIKIETLFEPDEERPEPPRTVVMQGAAGIGKSMLAHKVMLDWADGKLFQGRFDYLFYINCREMNQSATECSMQDLIFSCWPEPSAPLQELIRVPERLLFIIDGFDELKPSFHDPQGPWCLCWEEKRPTELLLNSLIRKKLLPELSLLITTRPTALEKLHRLLEHPRHVEILGFSEAERKEYFYKYFHNAEQAGQVFNYVRDNEPLFTMCFVPLVCWVVCTCLQQQLEGGGLLRQTSRTTTAVYMLYLLSLMQPKPGAPRLQPPPNQRGLCSLAADGLWNQKILFEEQDLRKHGLDGEDVSAFLNMNIFQKDINCERYYSFIHLSFQEFFAAMYYILDEGEGGAGPDQDVTRLLTEYAFSERSFLALTSRFLFGLLNEETRSHLEKSLCWKVSPHIKMDLLQWIQSKAQSDGSTLQQGSLEFFSCLYEIQEEEFIQQALSHFQVIVVSNIASKMEHMVSSFCLKRCRSAQVLHLYGATYSADGEDRARCSAGAHTLLVQLPERTVLLDAYSEHLAAALCTNPNLIELSLYRNALGSRGVKLLCQGLRHPNCKLQNLRLKRCRISSSACEDLSAALIANKNLTRMDLSGNGVGFPGMMLLCEGLRHPQCRLQMIQLRKCQLESGACQEMASVLGTNPHLVELDLTGNALEDLGLRLLCQGLRHPVCRLRTLWLKICRLTAAACDELASTLSVNQSLRELDLSLNELGDLGVLLLCEGLRHPTCKLQTLRLGICRLGSAACEGLSVVLQANHNLRELDLSFNDLGDWGLWLLAEGLQHPACRLQKLWLDSCGLTAKACENLYFTLGINQTLTDLYLTNNALGDTGVRLLCKRLSHPGCKLRVLWLFGMDLNKMTHSRLAALRVTKPYLDIGC | binds | – |
| Hexokinase 2 (HK2) (enzyme, UniProt P52789 1-917) MIASHLLAYFFTELNHDQVQKVDQYLYHMRLSDETLLEISKRFRKEMEKGLGATTHPTAAVKMLPTFVRSTPDGTEHGEFLALDLGGTNFRVLWVKVTDNGLQKVEMENQIYAIPEDIMRGSGTQLFDHIAECLANFMDKLQIKDKKLPLGFTFSFPCHQTKLDESFLVSWTKGFKSSGVEGRDVVALIRKAIQRRGDFDIDIVAVVNDTVGTMMTCGYDDHNCEIGLIVGTGSNACYMEEMRHIDMVEGDEGRMCINMEWGAFGDDGSLNDIRTEFDQEIDMGSLNPGKQLFEKMISGMYMGELVRLILVKMAKEELLFGGKLSPELLNTGRFETKDISDIEGEKDGIRKAREVLMRLGLDPTQEDCVATHRICQIVSTRSASLCAATLAAVLQRIKENKGEERLRSTIGVDGSVYKKHPHFAKRLHKTVRRLVPGCDVRFLRSEDGSGKGAAMVTAVAYRLADQHRARQKTLEHLQLSHDQLLEVKRRMKVEMERGLSKETHASAPVKMLPTYVCATPDGTEKGDFLALDLGGTNFRVLLVRVRNGKWGGVEMHNKIYAIPQEVMHGTGDELFDHIVQCIADFLEYMGMKGVSLPLGFTFSFPCQQNSLDESILLKWTKGFKASGCEGEDVVTLLKEAIHRREEFDLDVVAVVNDTVGTMMTCGFEDPHCEVGLIVGTGSNACYMEEMRNVELVEGEEGRMCVNMEWGAFGDNGCLDDFRTEFDVAVDELSLNPGKQRFEKMISGMYLGEIVRNILIDFTKRGLLFRGRISERLKTRGIFETKFLSQIESDCLALLQVRAILQHLGLESTCDDSIIVKEVCTVVARRAAQLCGAGMAAVVDRIRENRGLDALKVTVGVDGTLYKLHPHFAKVMHETVKDLAPKCDVSFLQSEDGSGKGAALITAVACRIREAGQR | binds | – |
| His-HK2 (enzyme, UniProt P52789 1-917) MIASHLLAYFFTELNHDQVQKVDQYLYHMRLSDETLLEISKRFRKEMEKGLGATTHPTAAVKMLPTFVRSTPDGTEHGEFLALDLGGTNFRVLWVKVTDNGLQKVEMENQIYAIPEDIMRGSGTQLFDHIAECLANFMDKLQIKDKKLPLGFTFSFPCHQTKLDESFLVSWTKGFKSSGVEGRDVVALIRKAIQRRGDFDIDIVAVVNDTVGTMMTCGYDDHNCEIGLIVGTGSNACYMEEMRHIDMVEGDEGRMCINMEWGAFGDDGSLNDIRTEFDQEIDMGSLNPGKQLFEKMISGMYMGELVRLILVKMAKEELLFGGKLSPELLNTGRFETKDISDIEGEKDGIRKAREVLMRLGLDPTQEDCVATHRICQIVSTRSASLCAATLAAVLQRIKENKGEERLRSTIGVDGSVYKKHPHFAKRLHKTVRRLVPGCDVRFLRSEDGSGKGAAMVTAVAYRLADQHRARQKTLEHLQLSHDQLLEVKRRMKVEMERGLSKETHASAPVKMLPTYVCATPDGTEKGDFLALDLGGTNFRVLLVRVRNGKWGGVEMHNKIYAIPQEVMHGTGDELFDHIVQCIADFLEYMGMKGVSLPLGFTFSFPCQQNSLDESILLKWTKGFKASGCEGEDVVTLLKEAIHRREEFDLDVVAVVNDTVGTMMTCGFEDPHCEVGLIVGTGSNACYMEEMRNVELVEGEEGRMCVNMEWGAFGDNGCLDDFRTEFDVAVDELSLNPGKQRFEKMISGMYLGEIVRNILIDFTKRGLLFRGRISERLKTRGIFETKFLSQIESDCLALLQVRAILQHLGLESTCDDSIIVKEVCTVVARRAAQLCGAGMAAVVDRIRENRGLDALKVTVGVDGTLYKLHPHFAKVMHETVKDLAPKCDVSFLQSEDGSGKGAALITAVACRIREAGQR | – | binds |
| flag-NLRP12 (protein, UniProt P59046 1-1061) MLRTAGRDGLCRLSTYLEELEAVELKKFKLYLGTATELGEGKIPWGSMEKAGPLEMAQLLITHFGPEEAWRLALSTFERINRKDLWERGQREDLVRDTPPGGPSSLGNQSTCLLEVSLVTPRKDPQETYRDYVRRKFRLMEDRNARLGECVNLSHRYTRLLLVKEHSNPMQVQQQLLDTGRGHARTVGHQASPIKIETLFEPDEERPEPPRTVVMQGAAGIGKSMLAHKVMLDWADGKLFQGRFDYLFYINCREMNQSATECSMQDLIFSCWPEPSAPLQELIRVPERLLFIIDGFDELKPSFHDPQGPWCLCWEEKRPTELLLNSLIRKKLLPELSLLITTRPTALEKLHRLLEHPRHVEILGFSEAERKEYFYKYFHNAEQAGQVFNYVRDNEPLFTMCFVPLVCWVVCTCLQQQLEGGGLLRQTSRTTTAVYMLYLLSLMQPKPGAPRLQPPPNQRGLCSLAADGLWNQKILFEEQDLRKHGLDGEDVSAFLNMNIFQKDINCERYYSFIHLSFQEFFAAMYYILDEGEGGAGPDQDVTRLLTEYAFSERSFLALTSRFLFGLLNEETRSHLEKSLCWKVSPHIKMDLLQWIQSKAQSDGSTLQQGSLEFFSCLYEIQEEEFIQQALSHFQVIVVSNIASKMEHMVSSFCLKRCRSAQVLHLYGATYSADGEDRARCSAGAHTLLVQLPERTVLLDAYSEHLAAALCTNPNLIELSLYRNALGSRGVKLLCQGLRHPNCKLQNLRLKRCRISSSACEDLSAALIANKNLTRMDLSGNGVGFPGMMLLCEGLRHPQCRLQMIQLRKCQLESGACQEMASVLGTNPHLVELDLTGNALEDLGLRLLCQGLRHPVCRLRTLWLKICRLTAAACDELASTLSVNQSLRELDLSLNELGDLGVLLLCEGLRHPTCKLQTLRLGICRLGSAACEGLSVVLQANHNLRELDLSFNDLGDWGLWLLAEGLQHPACRLQKLWLDSCGLTAKACENLYFTLGINQTLTDLYLTNNALGDTGVRLLCKRLSHPGCKLRVLWLFGMDLNKMTHSRLAALRVTKPYLDIGC | – | binds |
